Reference: publication PMC4908583
These are yes or no findings as the source states them, for the method shown.

Target: NadA_(24–89) (head-only) (N. meningitidis strain 2996) (UniProt Q8KH85)
Experiment: SEC-MALS; SE-HPLC/MALLS, TSK Super SW3000, RT, ~40 uM sample, 0.1 M NaH2PO4, 0.4 M (NH4)2SO4 pH 6.0; both purified

## NadA_(24–89) (head-only) (from UniProt Q8KH85 24-89) (domain or fragment)
  binding: no binding
